According to patent EP0617020A1, “Carboxylic acid derivatives having retinoic acid-like activity” (Shudo, Koichi, Prof. Dr., priority 1993, dated 1994):
At least one structure is not confirmed: it was looked up by name or label, or the drawing left a doubt.

System: promyelocytic leukemia cell-line HL-60
Assay: Differentiation inducing activity on HL-60 (differentiation to granulocyte; morphological observation of nucleus and NBT reduction)
Assay type: cell-based
Conditions: concentration which induced differentiation in the half of the cells, morphology and NBT reduction

With `CC1(C)CCC(C)(C)c2cc(C(=O)Nc3ccc(C(=O)O)cc3O)ccc21` [Example 4, 3-Hydroxy-4-(5,6,7,8-tetrahydro-5,5,8,8-tetramethyl-2-naphthalenylcarboxamide)benzoic acid] the ED₅₀ was 6.5 × 10 ⁻⁹ M.
